In US20240116951A1, “HETEROCYCLIC COMPOUNDS AND USES THEREOF” (Kumquat Biosciences Inc., priority 2022, published 2024):
Some of these results come from one statement about several compounds together. For at least one compound, name, drawing or mass did not settle the structure.

tested on: Kras mutant G12S and/or G12C; assay: Covalent modification of KRAS protein by intact-protein LC-MS; type: biochemical; settings: within 24 hours, room temperature

Row | Structure (SMILES) | ability to crosslink Kras mutant G12S and/or G12C (% KRAS protein modification)
1 | N#Cc1c(N)sc2c(F)ccc(-c3c(Cl)cc4c(N5CC[C@@]6(CCN6C(=O)n6cnc(Cl)n6)C5)nc(OC[C@@]56CCCN5C[C@H](F)C6)nc4c3F)c12 (atropisomer, axis not shown; (aS)) [Compound 225, 2-amino-4-((R)-6-chloro-4-((R)-1-(3-chloro-1H-1,2,4-triazole-1-carbonyl)-1,6-diazaspiro[3.4]octan-6-yl)-8-fluoro-2-(((2R,7aS)-2-fluorotetrahydro-1H-pyrrolizin-7a(5H)-yl)methoxy)quinazolin-7-yl)-7-fluorobenzo[b]thiophene-3-carbonitrile] | greater than 0%
2 | C#Cc1c(F)ccc2cc(O)cc(-c3ncc4c(N5CCC6(CCN6C(=O)n6cncn6)C5)nc(O[C@@H](C)[C@@H]5CCCN5C)nc4c3F)c12 (stereo partly drawn) [Compound 256, (6-(7-(8-ethynyl-7-fluoro-3-hydroxynaphthalen-1-yl)-8-fluoro-2-((S)-1-((S)-1-methylpyrrolidin-2-yl)ethoxy)pyrido[4,3-d]pyrimidin-4-yl)-1,6-diazaspiro[3.4]octan-1-yl)(1H-1,2,4-triazol-1-yl)methanone] | greater than 0%
3 | N#Cc1c(N)sc2c(F)ccc(-c3c(Cl)cc4c(N5CCCC6(CCN6C(=O)n6cncn6)C5)nc(OC[C@@]56CCCN5C[C@H](F)C6)nc4c3F)c12 (stereo partly drawn) [Compound 275, 4-(4-(1-(1H-1,2,4-triazole-1-carbonyl)-1,6-diazaspiro[3.5]nonan-6-yl)-6-chloro-8-fluoro-2-(((2R,7aS)-2-fluorotetrahydro-1H-pyrrolizin-7a(5H)-yl)methoxy)quinazolin-7-yl)-2-amino-7-fluorobenzo[b]thiophene-3-carbonitrile] | greater than 0%
4 | N#Cc1c(N)sc2c(F)ccc(-c3c(Cl)cc4c(N5CCC6(CCN6C(=O)ON6C(=O)CCC6=O)C5)nc(OC[C@@]56CCCN5C[C@H](F)C6)nc4c3F)c12 (stereo partly drawn) [Compound 243, 2,5-dioxopyrrolidin-1-yl 6-(7-(2-amino-3-cyano-7-fluorobenzo[b]thiophen-4-yl)-6-chloro-8-fluoro-2-(((2R,7aS)-2-fluorotetrahydro-1H-pyrrolizin-7a(5H)-yl)methoxy)quinazolin-4-yl)-1,6-diazaspiro[3.4]octane-1-carboxylate] | greater than 0%
5 | N#Cc1c(N)sc2c(F)ccc(-c3c(Cl)cc4c(N5CC[C@@]6(CCN6C(=O)n6cnc(F)n6)C5)nc(OC[C@@]56CCCN5C[C@H](F)C6)nc4c3F)c12 (atropisomer, axis not shown; (aS)) [Compound 281, (R)-2-amino-4-(6-chloro-8-fluoro-4-((R)-1-(3-fluoro-1H-1,2,4-triazole-1-carbonyl)-1,6-diazaspiro[3.4]octan-6-yl)-2-(((2R,7aS)-2-fluorotetrahydro-H-pyrrolizin-7a(5H)-yl)methoxy)quinazolin-7-yl)-7-fluorobenzo[b]thiophene-3-carbonitrile] | greater than 0%
6 | N#Cc1c(N)sc2c(F)ccc(-c3c(Cl)cc4c(N5CCCC6(CCCN6C(=O)n6cncn6)C5)nc(OC[C@@]56CCCN5C[C@H](F)C6)nc4c3F)c12 (stereo partly drawn) [Compound 246, 4-(4-(1-(1H-1,2,4-triazole-1-carbonyl)-1,7-diazaspiro[4.5]decan-7-yl)-6-chloro-8-fluoro-2-(((2R,7aS)-2-fluorotetrahydro-1H-pyrrolizin-7a(5H)-yl)methoxy)quinazolin-7-yl)-2-amino-7-fluorobenzo[b]thiophene-3-carbonitrile] | greater than 0%
7 | N#Cc1c(N)sc2c(F)ccc(-c3c(Cl)cc4c(N5CCC6(CC5)CCN6C(=O)[C@@H]5N[C@H]5C5CC5)nc(OC[C@@]56CCCN5C[C@H](F)C6)nc4c3F)c12 [Compound 262, 2-amino-4-(6-chloro-4-(1-((2R,3S)-3-cyclopropylaziridine-2-carbonyl)-1,7-diazaspiro[3.5]nonan-7-yl)-8-fluoro-2-(((2R,7aS)-2-fluorotetrahydro-1H-pyrrolizin-7a(5H)-yl)methoxy)quinazolin-7-yl)-7-fluorobenzo[b]thiophene-3-carbonitrile] | greater than 0%
8 | C[C@H]1CN(C(=O)n2cnc(F)n2)[C@]12CCN(c1nc(OC[C@@]34CCCN3C[C@H](F)C4)nc3c(F)c(-c4ccc(F)c5sc(N)c(C#N)c45)c(Cl)cc13)C2 [Compound 255, 2-amino-4-(6-chloro-8-fluoro-4-((3S,4R)-1-(3-fluoro-1H-1,2,4-triazole-1-carbonyl)-3-methyl-1,6-diazaspiro[3.4]octan-6-yl)-2-(((2R,7aS)-2-fluorotetrahydro-1H-pyrrolizin-7a(5H)-yl)methoxy)quinazolin-7-yl)-7-fluorobenzo[b]thiophene-3-carbonitrile] | greater than 0%
9 | C[C@H](Oc1nc(N2CCCC3(CCN3C(=O)n3cncn3)C2)c2cc(Cl)c(-c3ccc(F)c4sc(N)c(C#N)c34)c(F)c2n1)[C@@H]1CCCN1C (stereo partly drawn) [Compound 201, 4-(4-(1-(1H-1,2,4-triazole-1-carbonyl)-1,6-diazaspiro[3.5]nonan-6-yl)-6-chloro-8-fluoro-2-((S)-1-((S)-1-methylpyrrolidin-2-yl)ethoxy)quinazolin-7-yl)-2-amino-7-fluorobenzo[b]thiophene-3-carbonitrile] | greater than 0%
10 | Cc1nc(C(C)C)nn1C(=O)N1CCC12CCN(c1nc(OC[C@@]34CCCN3C[C@H](F)C4)nc3c(F)c(-c4ccc(F)c5sc(N)c(C#N)c45)c(Cl)cc13)C2 (stereo partly drawn) [Compound 266, 2-amino-4-(6-chloro-8-fluoro-2-(((2R,7aS)-2-fluorotetrahydro-1H-pyrrolizin-7a(5H)-yl)methoxy)-4-(1-(3-isopropyl-5-methyl-1H-1,2,4-triazole-1-carbonyl)-1,6-diazaspiro[3.4]octan-6-yl)quinazolin-7-yl)-7-fluorobenzo[b]thiophene-3-carbonitrile] | greater than 0%
11 | N#Cc1c(N)sc2c(F)ccc(-c3c(Cl)cc4c(N5CC[C@@]6(CCN6C(=O)n6cnc(C(F)F)n6)C5)nc(OC[C@@]56CCCN5C[C@H](F)C6)nc4c3F)c12 (atropisomer, axis not shown; (aS)) [Compound 278, 2-amino-4-((R)-6-chloro-4-((R)-1-(3-(difluoromethyl)-1H-1,2,4-triazole-1-carbonyl)-1,6-diazaspiro[3.4]octan-6-yl)-8-fluoro-2-(((2R,7aS)-2-fluorotetrahydro-1H-pyrrolizin-7a(5H)-yl)methoxy)quinazolin-7-yl)-7-fluorobenzo[b]thiophene-3-carbonitrile] | greater than 0%
12 | Nc1nc2c(-c3c(Cl)cc4c(N5CCCC6(CCCN6C(=O)n6cncn6)C5)nc(OC[C@@]56CCCN5C[C@H](F)C6)nc4c3F)ccc(F)c2s1 (stereo partly drawn) [Compound 211, (7-(7-(2-amino-7-fluorobenzo[d]thiazol-4-yl)-6-chloro-8-fluoro-2-(((2R,7aS)-2-fluorotetrahydro-1H-pyrrolizin-7a(5H)-yl)methoxy)quinazolin-4-yl)-1,7-diazaspiro[4.5]decan-1-yl)(1H-1,2,4-triazol-1-yl)methanone] | greater than 0%
